In the supplement of paper PMC10849652 one finds log2 fold change data, which are given here for 23 targets.

By UniProt entry, the sequences of proteins in these tests, tags left out. Where a name states a change or a piece, a line headed by the entry shows the natural chain unless it says otherwise.
UniProt P23588, whole entry, looked up: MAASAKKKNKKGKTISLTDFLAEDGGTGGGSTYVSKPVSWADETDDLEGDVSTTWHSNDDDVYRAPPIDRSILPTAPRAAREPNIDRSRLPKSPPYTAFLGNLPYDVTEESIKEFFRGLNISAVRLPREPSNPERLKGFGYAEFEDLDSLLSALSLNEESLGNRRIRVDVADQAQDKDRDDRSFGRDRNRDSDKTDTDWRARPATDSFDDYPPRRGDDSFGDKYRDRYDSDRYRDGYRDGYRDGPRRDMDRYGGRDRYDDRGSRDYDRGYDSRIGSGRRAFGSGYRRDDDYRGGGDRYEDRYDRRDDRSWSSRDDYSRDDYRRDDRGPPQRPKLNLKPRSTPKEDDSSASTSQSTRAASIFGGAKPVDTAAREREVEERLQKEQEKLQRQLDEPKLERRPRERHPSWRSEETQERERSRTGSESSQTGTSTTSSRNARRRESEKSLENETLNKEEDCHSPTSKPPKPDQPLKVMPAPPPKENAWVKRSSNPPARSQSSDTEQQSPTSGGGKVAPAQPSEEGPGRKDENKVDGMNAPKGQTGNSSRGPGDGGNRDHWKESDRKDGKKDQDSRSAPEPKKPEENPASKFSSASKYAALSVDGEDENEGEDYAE
UniProt O00303, whole entry, looked up: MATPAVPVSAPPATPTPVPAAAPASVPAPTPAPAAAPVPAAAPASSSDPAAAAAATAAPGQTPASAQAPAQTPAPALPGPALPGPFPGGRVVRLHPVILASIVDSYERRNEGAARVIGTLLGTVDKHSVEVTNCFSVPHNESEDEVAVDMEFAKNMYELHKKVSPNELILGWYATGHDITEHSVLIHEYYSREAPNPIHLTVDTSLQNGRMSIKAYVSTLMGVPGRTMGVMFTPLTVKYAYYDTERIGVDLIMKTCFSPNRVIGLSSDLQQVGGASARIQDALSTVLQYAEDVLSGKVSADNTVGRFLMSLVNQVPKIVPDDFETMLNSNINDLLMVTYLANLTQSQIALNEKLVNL
UniProt P41214: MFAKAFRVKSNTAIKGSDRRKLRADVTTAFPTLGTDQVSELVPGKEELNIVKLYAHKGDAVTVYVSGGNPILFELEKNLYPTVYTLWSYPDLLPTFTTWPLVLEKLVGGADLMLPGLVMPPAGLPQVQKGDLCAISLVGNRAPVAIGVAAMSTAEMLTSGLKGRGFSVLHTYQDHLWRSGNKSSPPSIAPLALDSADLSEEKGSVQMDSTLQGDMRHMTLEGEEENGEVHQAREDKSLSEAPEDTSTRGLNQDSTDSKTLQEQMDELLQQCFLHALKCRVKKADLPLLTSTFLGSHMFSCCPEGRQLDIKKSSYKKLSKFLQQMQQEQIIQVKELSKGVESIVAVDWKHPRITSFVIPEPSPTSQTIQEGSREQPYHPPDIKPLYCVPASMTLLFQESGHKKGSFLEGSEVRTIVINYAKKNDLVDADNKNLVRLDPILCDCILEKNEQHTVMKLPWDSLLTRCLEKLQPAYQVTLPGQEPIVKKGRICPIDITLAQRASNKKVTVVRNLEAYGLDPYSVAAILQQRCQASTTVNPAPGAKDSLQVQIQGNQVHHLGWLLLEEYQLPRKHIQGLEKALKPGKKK
UniProt Q5UCC4: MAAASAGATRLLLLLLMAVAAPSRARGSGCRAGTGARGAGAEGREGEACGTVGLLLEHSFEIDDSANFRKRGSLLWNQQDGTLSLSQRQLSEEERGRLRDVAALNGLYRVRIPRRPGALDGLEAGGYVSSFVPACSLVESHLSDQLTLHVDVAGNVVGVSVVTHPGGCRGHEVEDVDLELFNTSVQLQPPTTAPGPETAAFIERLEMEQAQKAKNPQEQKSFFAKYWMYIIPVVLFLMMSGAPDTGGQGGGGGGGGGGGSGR
UniProt O43402: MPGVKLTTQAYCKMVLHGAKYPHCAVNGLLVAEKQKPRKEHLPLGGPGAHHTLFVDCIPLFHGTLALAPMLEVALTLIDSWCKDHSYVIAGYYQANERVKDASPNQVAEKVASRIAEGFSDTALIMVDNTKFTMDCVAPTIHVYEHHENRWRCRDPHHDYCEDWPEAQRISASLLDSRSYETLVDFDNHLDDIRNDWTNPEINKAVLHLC
UniProt O15371, whole entry, looked up: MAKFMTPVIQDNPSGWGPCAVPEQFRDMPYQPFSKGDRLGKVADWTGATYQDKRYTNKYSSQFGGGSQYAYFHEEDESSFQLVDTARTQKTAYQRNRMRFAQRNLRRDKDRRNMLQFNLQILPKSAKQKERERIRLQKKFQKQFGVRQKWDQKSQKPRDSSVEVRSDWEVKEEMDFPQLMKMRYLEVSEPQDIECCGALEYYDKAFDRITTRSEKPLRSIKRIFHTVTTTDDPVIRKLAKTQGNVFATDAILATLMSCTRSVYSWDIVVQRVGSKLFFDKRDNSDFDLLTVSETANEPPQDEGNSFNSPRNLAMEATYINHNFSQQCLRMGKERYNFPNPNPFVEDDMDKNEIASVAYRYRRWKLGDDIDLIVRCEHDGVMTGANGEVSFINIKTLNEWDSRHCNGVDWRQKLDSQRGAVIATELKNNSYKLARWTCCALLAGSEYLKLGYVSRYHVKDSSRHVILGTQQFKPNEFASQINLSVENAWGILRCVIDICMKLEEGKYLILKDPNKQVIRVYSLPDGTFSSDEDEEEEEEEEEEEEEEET
UniProt Q8NFI3: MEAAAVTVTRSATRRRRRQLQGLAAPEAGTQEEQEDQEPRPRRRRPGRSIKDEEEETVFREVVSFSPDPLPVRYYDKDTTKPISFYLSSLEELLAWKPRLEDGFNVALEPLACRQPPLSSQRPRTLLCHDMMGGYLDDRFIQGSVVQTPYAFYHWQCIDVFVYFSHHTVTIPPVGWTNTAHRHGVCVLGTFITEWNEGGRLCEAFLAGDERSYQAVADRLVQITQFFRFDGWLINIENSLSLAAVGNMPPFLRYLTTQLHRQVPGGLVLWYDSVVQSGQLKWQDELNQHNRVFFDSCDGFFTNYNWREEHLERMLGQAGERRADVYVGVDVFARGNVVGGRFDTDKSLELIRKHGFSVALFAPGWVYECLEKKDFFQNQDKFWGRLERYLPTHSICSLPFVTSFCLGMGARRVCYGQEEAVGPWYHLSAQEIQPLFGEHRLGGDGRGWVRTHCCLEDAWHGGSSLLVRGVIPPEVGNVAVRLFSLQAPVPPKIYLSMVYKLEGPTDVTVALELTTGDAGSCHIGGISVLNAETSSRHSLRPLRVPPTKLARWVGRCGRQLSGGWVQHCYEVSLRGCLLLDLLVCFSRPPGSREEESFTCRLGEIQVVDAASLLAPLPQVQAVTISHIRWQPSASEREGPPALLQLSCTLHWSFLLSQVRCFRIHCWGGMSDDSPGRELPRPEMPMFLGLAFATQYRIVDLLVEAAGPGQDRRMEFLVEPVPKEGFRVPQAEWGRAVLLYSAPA
UniProt Q9UBC2: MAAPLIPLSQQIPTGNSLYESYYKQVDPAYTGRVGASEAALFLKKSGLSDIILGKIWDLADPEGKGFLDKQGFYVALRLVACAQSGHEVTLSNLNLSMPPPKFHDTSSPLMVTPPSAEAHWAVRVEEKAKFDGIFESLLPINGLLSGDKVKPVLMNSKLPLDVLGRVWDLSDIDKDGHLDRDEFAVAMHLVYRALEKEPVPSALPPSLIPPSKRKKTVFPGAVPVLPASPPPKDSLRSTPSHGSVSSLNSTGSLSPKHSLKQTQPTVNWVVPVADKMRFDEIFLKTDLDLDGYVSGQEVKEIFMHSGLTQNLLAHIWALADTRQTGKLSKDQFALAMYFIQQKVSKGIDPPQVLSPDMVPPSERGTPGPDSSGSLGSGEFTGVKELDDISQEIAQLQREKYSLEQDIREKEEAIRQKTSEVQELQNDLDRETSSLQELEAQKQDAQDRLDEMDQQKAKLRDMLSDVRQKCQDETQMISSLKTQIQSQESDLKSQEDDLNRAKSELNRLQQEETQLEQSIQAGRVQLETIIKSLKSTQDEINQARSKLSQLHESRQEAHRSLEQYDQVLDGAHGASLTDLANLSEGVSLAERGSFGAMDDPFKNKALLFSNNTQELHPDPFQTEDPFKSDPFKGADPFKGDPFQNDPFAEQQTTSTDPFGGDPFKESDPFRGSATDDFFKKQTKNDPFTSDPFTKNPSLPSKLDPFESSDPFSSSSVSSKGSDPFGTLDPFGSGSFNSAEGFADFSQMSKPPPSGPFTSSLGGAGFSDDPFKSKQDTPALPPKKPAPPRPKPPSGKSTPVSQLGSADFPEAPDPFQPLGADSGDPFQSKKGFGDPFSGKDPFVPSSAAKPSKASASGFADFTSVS
UniProt Q6ZTU2, whole entry, looked up: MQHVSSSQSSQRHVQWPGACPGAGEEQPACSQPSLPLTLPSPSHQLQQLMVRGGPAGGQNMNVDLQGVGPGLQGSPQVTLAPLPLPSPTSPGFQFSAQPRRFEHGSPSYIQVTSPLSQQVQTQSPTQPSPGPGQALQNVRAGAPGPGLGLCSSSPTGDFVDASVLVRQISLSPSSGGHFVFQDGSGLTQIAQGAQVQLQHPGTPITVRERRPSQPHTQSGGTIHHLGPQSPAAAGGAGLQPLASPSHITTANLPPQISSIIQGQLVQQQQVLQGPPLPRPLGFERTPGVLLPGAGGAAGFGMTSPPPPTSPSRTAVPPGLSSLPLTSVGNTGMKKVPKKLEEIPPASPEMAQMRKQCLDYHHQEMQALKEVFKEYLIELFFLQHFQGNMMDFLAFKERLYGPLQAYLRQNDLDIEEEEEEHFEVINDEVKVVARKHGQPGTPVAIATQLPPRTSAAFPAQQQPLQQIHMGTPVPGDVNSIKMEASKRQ
UniProt Q13144, whole entry, looked up: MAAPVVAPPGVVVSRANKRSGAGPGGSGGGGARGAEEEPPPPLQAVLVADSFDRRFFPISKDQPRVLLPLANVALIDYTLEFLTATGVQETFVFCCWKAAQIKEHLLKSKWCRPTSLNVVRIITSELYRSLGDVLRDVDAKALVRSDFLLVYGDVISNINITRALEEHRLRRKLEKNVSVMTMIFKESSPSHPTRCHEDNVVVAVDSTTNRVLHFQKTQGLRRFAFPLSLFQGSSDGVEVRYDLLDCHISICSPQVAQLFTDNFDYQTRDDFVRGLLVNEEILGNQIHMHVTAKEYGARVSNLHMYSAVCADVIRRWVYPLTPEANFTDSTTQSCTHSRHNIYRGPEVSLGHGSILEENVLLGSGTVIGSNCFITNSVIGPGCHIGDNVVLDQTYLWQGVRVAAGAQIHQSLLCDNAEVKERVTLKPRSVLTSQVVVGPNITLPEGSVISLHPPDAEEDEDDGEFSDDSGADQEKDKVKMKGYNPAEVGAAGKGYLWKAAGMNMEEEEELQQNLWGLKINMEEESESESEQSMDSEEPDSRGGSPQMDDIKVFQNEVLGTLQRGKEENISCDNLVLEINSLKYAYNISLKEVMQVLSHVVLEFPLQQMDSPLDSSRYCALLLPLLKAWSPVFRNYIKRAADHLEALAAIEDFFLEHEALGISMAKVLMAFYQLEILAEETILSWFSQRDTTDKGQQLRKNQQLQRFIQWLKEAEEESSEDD
UniProt O75821, whole entry, looked up: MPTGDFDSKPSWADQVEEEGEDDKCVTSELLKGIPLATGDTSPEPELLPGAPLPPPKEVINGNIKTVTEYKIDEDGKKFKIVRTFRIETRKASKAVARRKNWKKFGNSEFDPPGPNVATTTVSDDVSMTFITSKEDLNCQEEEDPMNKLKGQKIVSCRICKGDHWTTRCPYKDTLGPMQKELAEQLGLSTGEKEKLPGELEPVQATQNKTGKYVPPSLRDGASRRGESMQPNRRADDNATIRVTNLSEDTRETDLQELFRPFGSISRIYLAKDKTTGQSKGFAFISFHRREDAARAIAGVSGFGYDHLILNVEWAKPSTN
UniProt Q15369, whole entry, looked up: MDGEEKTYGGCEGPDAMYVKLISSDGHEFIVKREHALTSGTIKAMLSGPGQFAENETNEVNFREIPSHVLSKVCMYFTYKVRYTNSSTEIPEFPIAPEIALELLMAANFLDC
UniProt Q14241: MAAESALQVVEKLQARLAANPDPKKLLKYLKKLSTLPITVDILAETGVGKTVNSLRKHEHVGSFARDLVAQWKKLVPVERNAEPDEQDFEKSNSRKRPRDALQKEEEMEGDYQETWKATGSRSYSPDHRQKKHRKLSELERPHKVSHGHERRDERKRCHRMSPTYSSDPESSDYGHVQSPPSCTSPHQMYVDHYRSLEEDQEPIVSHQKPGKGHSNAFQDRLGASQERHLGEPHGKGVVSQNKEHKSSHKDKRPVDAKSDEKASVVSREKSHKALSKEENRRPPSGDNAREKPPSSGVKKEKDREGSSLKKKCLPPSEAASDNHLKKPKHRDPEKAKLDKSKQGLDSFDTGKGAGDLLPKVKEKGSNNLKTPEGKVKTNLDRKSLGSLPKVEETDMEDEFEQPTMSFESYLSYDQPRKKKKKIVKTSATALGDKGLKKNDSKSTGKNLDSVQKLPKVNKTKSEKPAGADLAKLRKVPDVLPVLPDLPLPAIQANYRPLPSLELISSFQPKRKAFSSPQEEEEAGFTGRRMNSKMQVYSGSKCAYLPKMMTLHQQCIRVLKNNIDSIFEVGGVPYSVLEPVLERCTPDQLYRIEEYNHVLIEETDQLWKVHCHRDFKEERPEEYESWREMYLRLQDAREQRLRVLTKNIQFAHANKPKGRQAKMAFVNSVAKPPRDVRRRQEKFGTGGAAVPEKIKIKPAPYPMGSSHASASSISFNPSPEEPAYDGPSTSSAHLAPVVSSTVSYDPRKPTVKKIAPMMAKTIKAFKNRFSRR

Some of the results follow.

Compound in the assay: COc1cc2ncnc(Nc3ccc(F)c(Cl)c3)c2cc1OCCCN1CCOCC1 [gefitinib]
Briefly: log2 fold change, soluble protein after heating vs DMSO (PISA); higher = thermal stabilisation; K562 lysate, 10 uM; active = over 0.2 and 3.5 SD of the protein, either way, in both replicates (recomputed). The essentials:
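Values give the log-two fold change in thermal stability against solvent controls, from duplicates. Crude K562 extract at 1 mg/mL protein, made by dounce homogenisation in PBS pH 7.4 with 1 mM MgCl2, was treated with 10 μM compound for 30 min. After 3 min heating across 48°C-58°C, aliquots were pooled, adjusted to 0.5% NP-40 at 4°C and centrifuged at 21,000xg for 90 min. The supernatant was measured by TMTpro 16plex LC-MS/MS with channel sums equalised.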
EPB41L1 (UniProt Q9H4G0): the log2 fold change is inactive: 0.035.

Take ELAC2 (UniProt Q9BQ52): the log2 fold change was inactive: -0.008. Next, EIF4B (UniProt P23588): inactive: 0.029; EIF3F (UniProt O00303): inactive: -0.084; EIF2D (UniProt P41214): inactive: -0.031. Next, EMC2 (UniProt Q15006): inactive: -0.042. Next, EP300 (UniProt Q09472): inactive: -0.054; EIF5B (UniProt O60841): inactive: -0.027. For the target ERCC2 (UniProt P18074), the log2 fold change is inactive: -0.002. With EMC10 (UniProt Q5UCC4) the figure was inactive: 0.046; with EML2 isoform 3 (UniProt O95834), inactive: 0; with EMC8 (UniProt O43402), inactive: 0.004. With EIF3D (UniProt O15371) the figure was inactive: 0.005; with ENGASE (UniProt Q8NFI3), inactive: 0.018. With EPS15L1 isoform 2 (UniProt Q9UBC2), the log2 fold change was inactive: 0.004. With EP400P1 isoform 6 (UniProt Q6ZTU2) the figure was inactive: 0.014; with ENTPD5 (UniProt O75356), inactive: -0.008. With ELP6 (UniProt Q0PNE2) the figure was inactive: -0.029; with EIF2B5 (UniProt Q13144), inactive: -0.016. With EIF3G (UniProt O75821) the figure was inactive: -0.024. Take ELOC (UniProt Q15369): the log2 fold change was inactive: -0.083. Next, EML3 (UniProt Q32P44): inactive: 0. Next, ELOA (UniProt Q14241): inactive: 0.
